Measured values taken from paper PMC3422339.

By UniProt entry, the sequences of proteins in these tests, tags left out. Where a name states a change or a piece, a line headed by the entry shows the natural chain unless it says otherwise.
UniProt Q84W66: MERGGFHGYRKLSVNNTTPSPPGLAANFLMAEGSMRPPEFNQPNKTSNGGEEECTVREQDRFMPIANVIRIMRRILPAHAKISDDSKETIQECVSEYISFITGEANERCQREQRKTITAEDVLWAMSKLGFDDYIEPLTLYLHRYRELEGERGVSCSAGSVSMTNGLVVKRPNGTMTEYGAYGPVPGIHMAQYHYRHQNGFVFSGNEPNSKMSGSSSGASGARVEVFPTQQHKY

Target: 6His-L1L/AtNF-YB6 HFD (AA 26-118) (Arabidopsis thaliana) (UniProt Q84W66)
Assay: pull-down; co-expression of the HFDs in E. coli BL21(DE3); Ni-chelate affinity co-purification from the soluble extract by the 6His tag of the AtNF-YB; buffer A (10 mM Tris pH 8.0, 400 mM NaCl, 2 mM MgCl2, 5 mM imidazole), eluted with 100 mM imidazole; SDS-PAGE, Coomassie

binding: binds
B1: AtNF-YC3 HFD (AA 55-148), untagged (domain or fragment, UniProt Q9ZVL3 55-148)
chain: TQFKEIEKTTDFKNHSLPLARIKKIMKADEDVRMISAEAPVVFARACEMFILELTLRSWNHTEENKRRTLQKNDIAAAVTRTDIFDFLVDIVPR

These are yes or no findings as the source states them, for the method shown. In cells and extracts the contact can be indirect. Binding calls can cover weak binding; strength is not graded here. Tags and fused reporters may be left off the sequences shown.
